Laboratory results taken from PMC10602587.
Results are given in words; binding and its absence hold for the method and conditions named.

B1: DCLK1.1 351-729 (full C-tail) (domain or fragment, UniProt O15075-2 351-729)
chain: GSSTSLASTKVCSSMDENDGPGEEVSEEGFQIPATITERYKVGRTIGDGNFAVVKECVERSTAREYALKIIKKSKCRGKEHMIQNEVSILRRVKHPNIVLLIEEMDVPTELYLVMELVKGGDLFDAITSTNKYTERDASGMLYNLASAIKYLHSLNIVHRDIKPENLLVYEHQDGSKSLKLGDFGLATIVDGPLYTVCGTPTYVAPEIIAETGYGLKVDIWAAGVITYILLCGFPPFRGSGDDQEVLFDQILMGQVDFPSPYWDNVSDSAKELITMMLLVDVDQRFSAVQVLEHPWVNDDGLPENEHQLSVAGKIKKHFNTGPKPNSTAAGVSVIALDHGFTIKRSGSLDYYQQPGMYWIRPPLLIRRGRFSDEDATRM
B2: DCLK1.2 351-740 (full C-tail) (domain or fragment, UniProt O15075-1 351-740)
chain: GSSTSLASTKVCSSMDENDGPGEEVSEEGFQIPATITERYKVGRTIGDGNFAVVKECVERSTAREYALKIIKKSKCRGKEHMIQNEVSILRRVKHPNIVLLIEEMDVPTELYLVMELVKGGDLFDAITSTNKYTERDASGMLYNLASAIKYLHSLNIVHRDIKPENLLVYEHQDGSKSLKLGDFGLATIVDGPLYTVCGTPTYVAPEIIAETGYGLKVDIWAAGVITYILLCGFPPFRGSGDDQEVLFDQILMGQVDFPSPYWDNVSDSAKELITMMLLVDVDQRFSAVQVLEHPWVNDDGLPENEHQLSVAGKIKKHFNTGPKPNSTAAGVSVIATTALDKERQVFRRRRNQDVRSRYKAQPAPPELNSESEDYSPSSSETVRSPNSPF

Legend:
[1] = target: DCLK1.1 351-729 (full C-tail) (human) (UniProt O15075); assay: SEC; analytical SEC on Superdex 200 Increase 10/300 GL, 1 mg of each DCLK1 protein (legends: 1.1 mg), compared with molecular weight standards (bovine serum albumin, carbonic anhydrase, alcohol dehydrogenase); both purified
[2] = target: DCLK1.2 351-740 (full C-tail) (human) (UniProt O15075); assay: as above

Binder | binding [1] | binding [2]
B1 | no binding (tested: 1 mg loaded (legend: 1.1 mg)) | –
B2 | – | no binding (tested: 1 mg loaded (legend: 1.1 mg))
